Results: the supplement of paper PMC10849652
This is one part of the list.

By UniProt entry, the sequences of proteins in these tests, tags left out. Where a name states a change or a piece, a line headed by the entry shows the natural chain unless it says otherwise.
UniProt Q9P0S3: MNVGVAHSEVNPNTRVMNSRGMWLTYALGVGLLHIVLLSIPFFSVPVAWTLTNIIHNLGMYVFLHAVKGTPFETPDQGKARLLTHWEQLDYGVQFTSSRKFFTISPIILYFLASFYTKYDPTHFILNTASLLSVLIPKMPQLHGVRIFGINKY
UniProt Q9Y5N6: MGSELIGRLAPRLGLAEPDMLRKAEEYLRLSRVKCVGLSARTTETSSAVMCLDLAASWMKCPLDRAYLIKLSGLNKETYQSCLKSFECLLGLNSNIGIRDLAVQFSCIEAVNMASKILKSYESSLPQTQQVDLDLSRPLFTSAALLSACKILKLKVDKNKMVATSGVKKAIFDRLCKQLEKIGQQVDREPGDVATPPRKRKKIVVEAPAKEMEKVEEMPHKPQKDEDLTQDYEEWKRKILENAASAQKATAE
UniProt Q6QHF9: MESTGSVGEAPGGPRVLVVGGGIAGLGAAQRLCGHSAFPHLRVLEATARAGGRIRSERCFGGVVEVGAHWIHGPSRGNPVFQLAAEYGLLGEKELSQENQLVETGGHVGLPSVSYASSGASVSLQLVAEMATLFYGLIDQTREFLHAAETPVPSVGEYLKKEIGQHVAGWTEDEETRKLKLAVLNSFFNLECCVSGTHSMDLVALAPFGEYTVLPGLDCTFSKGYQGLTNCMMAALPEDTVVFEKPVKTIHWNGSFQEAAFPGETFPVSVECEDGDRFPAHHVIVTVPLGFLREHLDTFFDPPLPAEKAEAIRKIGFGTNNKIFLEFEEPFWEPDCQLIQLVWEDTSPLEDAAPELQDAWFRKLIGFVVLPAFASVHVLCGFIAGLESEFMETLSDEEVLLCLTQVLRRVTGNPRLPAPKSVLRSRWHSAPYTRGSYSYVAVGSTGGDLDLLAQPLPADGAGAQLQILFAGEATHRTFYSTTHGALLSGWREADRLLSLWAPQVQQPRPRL
UniProt Q8TEW8: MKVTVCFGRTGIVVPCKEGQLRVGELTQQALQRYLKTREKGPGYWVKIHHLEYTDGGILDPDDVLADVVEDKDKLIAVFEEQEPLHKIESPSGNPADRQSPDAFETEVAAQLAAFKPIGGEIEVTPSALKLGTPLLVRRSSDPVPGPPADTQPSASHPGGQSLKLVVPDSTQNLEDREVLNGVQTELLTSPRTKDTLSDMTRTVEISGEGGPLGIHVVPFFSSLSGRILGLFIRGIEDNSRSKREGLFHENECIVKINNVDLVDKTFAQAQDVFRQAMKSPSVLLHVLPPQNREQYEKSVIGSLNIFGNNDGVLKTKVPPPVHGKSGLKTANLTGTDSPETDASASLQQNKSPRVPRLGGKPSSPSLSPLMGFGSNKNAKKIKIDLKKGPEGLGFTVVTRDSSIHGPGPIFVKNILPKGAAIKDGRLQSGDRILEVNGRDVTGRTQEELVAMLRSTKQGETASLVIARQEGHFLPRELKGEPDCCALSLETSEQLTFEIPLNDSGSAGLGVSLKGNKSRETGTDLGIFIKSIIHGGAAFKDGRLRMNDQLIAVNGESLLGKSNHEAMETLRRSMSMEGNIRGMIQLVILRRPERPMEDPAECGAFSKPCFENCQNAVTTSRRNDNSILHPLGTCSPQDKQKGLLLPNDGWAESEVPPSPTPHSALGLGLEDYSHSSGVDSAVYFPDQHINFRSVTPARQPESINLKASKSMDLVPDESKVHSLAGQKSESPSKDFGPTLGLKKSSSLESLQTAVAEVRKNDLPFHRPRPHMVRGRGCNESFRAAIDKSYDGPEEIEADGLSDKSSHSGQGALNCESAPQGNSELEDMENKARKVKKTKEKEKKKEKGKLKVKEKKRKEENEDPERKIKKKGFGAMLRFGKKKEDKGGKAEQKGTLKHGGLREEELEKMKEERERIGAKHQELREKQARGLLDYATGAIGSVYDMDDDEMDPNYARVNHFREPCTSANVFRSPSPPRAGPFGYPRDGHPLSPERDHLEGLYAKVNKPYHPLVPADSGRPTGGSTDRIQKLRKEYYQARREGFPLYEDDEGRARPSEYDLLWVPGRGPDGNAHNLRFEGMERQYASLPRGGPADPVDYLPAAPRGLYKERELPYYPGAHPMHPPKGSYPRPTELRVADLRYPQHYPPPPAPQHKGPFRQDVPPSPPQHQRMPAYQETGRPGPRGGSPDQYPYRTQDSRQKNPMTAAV
UniProt O75781: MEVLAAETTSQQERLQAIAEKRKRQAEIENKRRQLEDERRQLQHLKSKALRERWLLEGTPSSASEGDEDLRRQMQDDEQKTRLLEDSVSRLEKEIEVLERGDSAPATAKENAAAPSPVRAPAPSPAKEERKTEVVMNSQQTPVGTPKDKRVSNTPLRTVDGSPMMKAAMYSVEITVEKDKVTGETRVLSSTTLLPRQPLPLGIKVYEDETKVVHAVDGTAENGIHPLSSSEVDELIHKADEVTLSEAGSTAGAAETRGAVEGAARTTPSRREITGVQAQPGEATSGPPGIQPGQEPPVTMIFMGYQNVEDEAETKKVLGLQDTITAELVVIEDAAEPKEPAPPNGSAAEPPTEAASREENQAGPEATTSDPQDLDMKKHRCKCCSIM
UniProt Q8N7B6: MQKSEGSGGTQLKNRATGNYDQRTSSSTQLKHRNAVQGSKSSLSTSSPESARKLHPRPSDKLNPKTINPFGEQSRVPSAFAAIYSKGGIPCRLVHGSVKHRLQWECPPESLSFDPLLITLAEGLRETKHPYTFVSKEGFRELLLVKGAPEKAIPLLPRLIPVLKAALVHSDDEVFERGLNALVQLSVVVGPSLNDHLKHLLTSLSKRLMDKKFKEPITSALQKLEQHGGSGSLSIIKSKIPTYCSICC
UniProt Q9GZY0: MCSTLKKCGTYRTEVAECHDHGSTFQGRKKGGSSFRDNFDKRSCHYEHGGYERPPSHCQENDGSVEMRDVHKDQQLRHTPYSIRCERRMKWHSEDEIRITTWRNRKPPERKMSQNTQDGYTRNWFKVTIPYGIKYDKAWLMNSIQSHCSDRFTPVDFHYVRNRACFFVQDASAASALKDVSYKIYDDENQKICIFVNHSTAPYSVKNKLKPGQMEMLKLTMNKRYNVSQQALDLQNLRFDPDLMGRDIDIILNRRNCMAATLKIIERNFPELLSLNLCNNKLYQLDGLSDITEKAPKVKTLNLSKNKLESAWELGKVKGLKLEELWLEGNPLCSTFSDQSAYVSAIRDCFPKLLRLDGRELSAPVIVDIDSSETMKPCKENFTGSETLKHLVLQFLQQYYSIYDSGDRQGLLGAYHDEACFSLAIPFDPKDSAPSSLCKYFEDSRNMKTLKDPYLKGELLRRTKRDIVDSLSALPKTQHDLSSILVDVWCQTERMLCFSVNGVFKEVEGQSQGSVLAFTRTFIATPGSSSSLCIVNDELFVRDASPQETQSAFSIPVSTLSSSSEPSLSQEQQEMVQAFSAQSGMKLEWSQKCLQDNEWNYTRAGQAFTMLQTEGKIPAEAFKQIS
UniProt Q9H6K4: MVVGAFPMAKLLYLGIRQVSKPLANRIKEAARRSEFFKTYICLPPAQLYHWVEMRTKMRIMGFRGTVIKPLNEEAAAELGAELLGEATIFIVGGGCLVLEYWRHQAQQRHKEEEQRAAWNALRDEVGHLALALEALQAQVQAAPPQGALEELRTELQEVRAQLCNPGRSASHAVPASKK
UniProt Q86WK9: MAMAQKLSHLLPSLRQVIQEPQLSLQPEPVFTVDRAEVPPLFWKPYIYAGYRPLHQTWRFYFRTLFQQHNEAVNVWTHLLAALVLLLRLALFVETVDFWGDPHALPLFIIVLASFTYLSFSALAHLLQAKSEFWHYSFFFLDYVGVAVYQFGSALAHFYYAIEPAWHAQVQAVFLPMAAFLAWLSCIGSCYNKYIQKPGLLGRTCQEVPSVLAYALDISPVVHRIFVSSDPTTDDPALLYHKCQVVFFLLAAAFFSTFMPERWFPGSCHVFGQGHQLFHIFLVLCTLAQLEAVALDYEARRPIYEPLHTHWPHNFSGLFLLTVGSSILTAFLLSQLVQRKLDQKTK
UniProt Q58A45: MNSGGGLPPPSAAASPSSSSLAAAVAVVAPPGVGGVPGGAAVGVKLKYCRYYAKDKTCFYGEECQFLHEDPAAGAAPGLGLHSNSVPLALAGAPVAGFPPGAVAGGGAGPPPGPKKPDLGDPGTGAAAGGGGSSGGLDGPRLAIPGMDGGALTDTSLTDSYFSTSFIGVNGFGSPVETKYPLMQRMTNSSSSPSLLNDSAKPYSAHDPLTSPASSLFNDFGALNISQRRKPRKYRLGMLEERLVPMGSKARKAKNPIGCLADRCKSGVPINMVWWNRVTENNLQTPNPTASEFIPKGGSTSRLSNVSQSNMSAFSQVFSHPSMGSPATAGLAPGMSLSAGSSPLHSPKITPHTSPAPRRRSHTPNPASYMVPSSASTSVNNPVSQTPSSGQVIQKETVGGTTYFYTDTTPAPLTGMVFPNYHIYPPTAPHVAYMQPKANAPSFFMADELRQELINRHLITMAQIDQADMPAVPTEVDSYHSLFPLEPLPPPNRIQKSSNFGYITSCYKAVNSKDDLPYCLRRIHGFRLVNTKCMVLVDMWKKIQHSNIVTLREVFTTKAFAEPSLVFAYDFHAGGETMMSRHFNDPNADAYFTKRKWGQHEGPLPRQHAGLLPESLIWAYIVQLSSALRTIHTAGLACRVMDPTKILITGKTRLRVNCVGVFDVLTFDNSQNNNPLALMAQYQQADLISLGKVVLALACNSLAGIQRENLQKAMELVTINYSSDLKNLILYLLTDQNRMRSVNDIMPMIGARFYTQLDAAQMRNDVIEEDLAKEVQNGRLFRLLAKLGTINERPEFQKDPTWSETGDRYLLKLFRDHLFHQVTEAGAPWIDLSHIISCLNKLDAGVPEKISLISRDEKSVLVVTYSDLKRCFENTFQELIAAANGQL
UniProt Q9NPJ8: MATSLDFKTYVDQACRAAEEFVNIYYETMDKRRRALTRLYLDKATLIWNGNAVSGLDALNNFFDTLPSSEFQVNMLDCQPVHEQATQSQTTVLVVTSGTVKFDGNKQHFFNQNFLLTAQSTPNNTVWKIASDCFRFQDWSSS
UniProt Q8N4S7: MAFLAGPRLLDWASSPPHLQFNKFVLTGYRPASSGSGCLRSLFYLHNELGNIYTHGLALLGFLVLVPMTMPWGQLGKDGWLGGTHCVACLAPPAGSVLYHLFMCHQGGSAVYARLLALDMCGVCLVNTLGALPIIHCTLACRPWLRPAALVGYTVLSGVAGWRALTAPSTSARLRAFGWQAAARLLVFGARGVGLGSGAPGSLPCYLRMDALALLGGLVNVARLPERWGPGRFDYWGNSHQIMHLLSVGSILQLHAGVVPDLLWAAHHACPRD
UniProt Q8N138: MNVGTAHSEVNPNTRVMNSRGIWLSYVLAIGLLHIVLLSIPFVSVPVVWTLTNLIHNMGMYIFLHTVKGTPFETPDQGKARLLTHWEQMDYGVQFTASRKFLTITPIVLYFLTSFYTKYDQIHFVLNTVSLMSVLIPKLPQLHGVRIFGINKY
UniProt Q86VP3, whole entry, looked up: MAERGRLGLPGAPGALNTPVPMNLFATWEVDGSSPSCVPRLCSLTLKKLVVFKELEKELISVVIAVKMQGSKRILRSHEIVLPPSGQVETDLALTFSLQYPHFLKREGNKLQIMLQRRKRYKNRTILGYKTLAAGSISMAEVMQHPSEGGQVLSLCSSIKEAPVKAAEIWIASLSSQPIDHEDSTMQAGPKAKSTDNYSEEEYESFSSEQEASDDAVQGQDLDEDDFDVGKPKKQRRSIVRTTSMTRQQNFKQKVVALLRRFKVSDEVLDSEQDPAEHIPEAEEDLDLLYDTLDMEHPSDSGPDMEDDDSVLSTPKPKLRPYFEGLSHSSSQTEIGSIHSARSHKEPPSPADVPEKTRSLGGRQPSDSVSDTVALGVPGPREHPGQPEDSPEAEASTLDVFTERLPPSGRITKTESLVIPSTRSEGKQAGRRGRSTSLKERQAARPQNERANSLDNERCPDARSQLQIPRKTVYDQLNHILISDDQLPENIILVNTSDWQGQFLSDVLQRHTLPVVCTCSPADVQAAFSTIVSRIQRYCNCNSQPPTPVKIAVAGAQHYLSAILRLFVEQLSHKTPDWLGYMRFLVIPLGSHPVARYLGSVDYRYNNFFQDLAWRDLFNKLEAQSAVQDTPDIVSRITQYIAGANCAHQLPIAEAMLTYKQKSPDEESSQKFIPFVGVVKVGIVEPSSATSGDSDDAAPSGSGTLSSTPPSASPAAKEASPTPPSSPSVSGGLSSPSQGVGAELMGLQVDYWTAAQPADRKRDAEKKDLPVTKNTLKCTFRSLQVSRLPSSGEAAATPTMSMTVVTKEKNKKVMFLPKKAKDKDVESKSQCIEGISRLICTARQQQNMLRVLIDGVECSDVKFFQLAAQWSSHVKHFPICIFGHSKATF
UniProt O15527, whole entry, looked up: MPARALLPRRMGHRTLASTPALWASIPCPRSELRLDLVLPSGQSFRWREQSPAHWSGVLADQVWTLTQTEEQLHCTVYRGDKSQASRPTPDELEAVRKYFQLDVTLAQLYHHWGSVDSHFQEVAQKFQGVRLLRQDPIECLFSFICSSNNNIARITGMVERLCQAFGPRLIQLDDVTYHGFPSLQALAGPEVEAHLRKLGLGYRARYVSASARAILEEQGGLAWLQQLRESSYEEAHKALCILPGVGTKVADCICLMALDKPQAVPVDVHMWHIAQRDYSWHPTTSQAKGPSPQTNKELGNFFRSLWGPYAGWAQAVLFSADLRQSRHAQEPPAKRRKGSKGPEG

Experiments:
Experiment in all cases: log2 fold change, soluble protein after heating vs DMSO (PISA); higher = thermal stabilisation; K562 lysate, 10 uM; active = over 0.2 and 3.5 SD of the protein, either way, in both replicates (recomputed)
[1] = compound: CS(=O)(=O)CCNCc1ccc(-c2ccc3ncnc(Nc4ccc(OCc5cccc(F)c5)c(Cl)c4)c3c2)o1 [lapatinib]
Summary of the method: (§1)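 The values are log-two fold changes in thermal stability compared with solvent controls and come from duplicates. They were obtained by TMTpro 16plex LC-MS/MS, with channel sums equalised, on the supernatant after 21,000xg for 90 min. That supernatant came from crude K562 extract at 1 mg/mL protein treated with 10 μM compound for 30 min, heated for 3 min across 48°C-58°C, pooled and brought to 0.5% NP-40 at 4°C.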

[2] = compound: CS(=O)(=O)N1CCN(Cc2cc3nc(-c4cccc5[nH]ncc45)nc(N4CCOCC4)c3s2)CC1 [pictilisib]
Summary of the method: as §1

[3] = compound: C[C@@H](Oc1cc(-c2cnn(C3CCNCC3)c2)cnc1N)c1c(Cl)ccc(F)c1Cl [crizotinib]
Summary of the method: as §1

[4] = compound: C[C@H](C1=CC=C(C=C1)C(=O)NC2=C3C=CNC3=NC=C2)N
Summary of the method: as §1

[5] = compound: C[C@H](Nc1ncnc2nc[nH]c12)c1cc2cccc(Cl)c2c(=O)n1-c1ccccc1 [duvelisib]
Summary of the method: as §1

[6] = compound: Cc1cc(Nc2cc(CN3CCOCC3)c3nc(C)c(Cc4ccc(Cl)cc4F)n3n2)n[nH]1 [gandotinib]
Summary of the method: as §1

[7] = compound: Cc1cc(Nc2cc(N3CCN(C)CC3)nc(Sc3ccc(NC(=O)C4CC4)cc3)n2)n[nH]1 [tozasertib]
Summary of the method: as §1

[8] = compound: Cc1ccc(-n2nc(C(C)(C)C)cc2NC(=O)Nc2ccc(OCCN3CCOCC3)c3ccccc23)cc1 [doramapimod]
Summary of the method: as §1

[9] = compound: Cc1ccc(NC(=O)c2ccc(CN3CC[C@H](N(C)C)C3)c(C(F)(F)F)c2)cc1Nc1nccc(-c2cncnc2)n1 [bafetinib]
Summary of the method: as §1

[10] = compound: Cc1cccc(CC(=O)N2CCc3c2ccc(-c2cn(C)c4ncnc(N)c24)c3F)n1
Summary of the method: as §1

[11] = compound: Cc1cn(-c2cc(NC(=O)c3ccc(C)c(Nc4nccc(-c5cccnc5)n4)c3)cc(C(F)(F)F)c2)cn1 [nilotinib]
Summary of the method: as §1

[12] = compound: Cc1nc(Nc2n[nH]c3c2CN(C(=O)N[C@H](CN(C)C)c2ccccc2)C3(C)C)c2sccc2n1
Summary of the method: as §1

[13] = compound: Cc1nc(Nc2ncc(C(=O)Nc3c(C)cccc3Cl)s2)cc(N2CCN(CCO)CC2)n1 [dasatinib]
Summary of the method: as §1

[14] = compound: Cc1ncc(-c2ccnc(Nc3ccc(S(C)(=O)=O)cc3)n2)n1C(C)C
Summary of the method: as §1

[15] = compound: Cn1cc(-c2ccc3c(c2)CCN3C(=O)Cc2cccc(C(F)(F)F)c2)c2c(N)ncnc21
Summary of the method: as §1

[16] = compound: Cn1cc(CNCC2CCN(c3ncc(C(=O)NO)cn3)CC2)c2ccccc21 [quisinostat]
Summary of the method: as §1

[17] = compound: Cn1cncc1[C@@](N)(c1ccc(Cl)cc1)c1ccc2c(c1)c(-c1cccc(Cl)c1)cc(=O)n2C [tipifarnib]
Summary of the method: as §1

[18] = compound: NC(=O)Nc1cc(-c2cccc(F)c2)sc1C(=O)N[C@H]1CCCNC1
Summary of the method: as §1

[19] = compound: NC(=O)c1cnc(N[C@@H]2CCCC[C@@H]2N)nc1Nc1cccc(-n2nccn2)c1
Summary of the method: as §1

[20] = compound: NC1(c2ccc(-c3nc4ccn5c(=O)[nH]nc5c4cc3-c3ccccc3)cc2)CCC1
Summary of the method: as §1

Measured: log2 fold change

P4HA1 (UniProt P13674)
inactive: [1] -0.003 | [2] -0.021 | [3] 0.007 | [4] 0.021 | [5] -0.016 | [6] -0.01 | [7] 0.022 | [8] -0.011 | [9] -0.022 | [10] 0.013 | [11] 0.018 | [12] -0.016 | [13] -0.012 | [14] 0.009 | [15] 0.005 | [16] 0.012 | [17] -0.039 | [18] -0.007 | [19] 0.005 | [20] -0.014

OS9 isoform 7 (UniProt Q13438)
inactive: [4] 0.117 | [6] -0.127 | [10] 0.045 | [20] 0.153

OXR1 isoform 2 (UniProt Q8N573)
inactive: [4] 0.064 | [6] -0.123 | [10] -0.215

ORMDL1 (UniProt Q9P0S3)
inactive: [2] 0.072 | [3] -0.115 | [4] -0.275 | [5] -0.121 | [6] -0.052 | [8] 0.087 | [9] 0.251 | [10] -0.051 | [11] -0.047 | [12] -0.155 | [13] -0.144 | [14] 0.067 | [15] 0.054 | [16] -0.085 | [17] 0.04 | [18] 0.003 | [20] 0.016

ORC6 (UniProt Q9Y5N6)
inactive: [2] -0.056 | [3] 0.016 | [4] 0.214 | [5] -0.035 | [6] -0.19 | [7] 0.012 | [8] 0.057 | [9] -0.049 | [10] -0.226 | [11] 0.032 | [12] 0 | [13] 0.04 | [14] -0.014 | [15] -0.02 | [16] -0.032 | [17] 0.032 | [18] 0.024 | [20] 0.056

OAF (UniProt Q86UD1)
inactive: [5] -0.23 | [13] -0.301 | [15] 0.066 | [20] -0.049

PAOX (UniProt Q6QHF9)
inactive: [2] -0.028 | [3] -0.032 | [8] -0.043 | [9] -0.018 | [16] -0.007 | [18] -0.02

OBSCN isoform 6 (UniProt Q5VST9)
inactive: [1] -0.175 | [19] -0.012 | [20] 0.079

ODF2 (UniProt Q5BJF6)
inactive: [2] 0 | [3] -0.099 | [4] -0.163 | [5] -0.044 | [6] -0.244 | [7] 0.099 | [8] 0.005 | [9] -0.019 | [10] 0.136 | [11] -0.094 | [12] -0.091 | [13] -0.047 | [14] 0.133 | [15] 0.007 | [16] 0 | [17] 0.024 | [18] 0.019 | [20] 0.029

PARD3B (UniProt Q8TEW8)
inactive: [4] -0.197 | [5] 0.024 | [6] 0.074 | [10] 0.042 | [13] 0.051 | [15] -0.095 | [20] 0.174

PALM isoform 2 (UniProt O75781)
inactive: [20] 0.059

OSBPL9 (UniProt E9PLH0)
inactive: [2] 0.105 | [9] -0.123 | [20] -0.007

OCIAD1 (UniProt D6RDK6)
inactive: [1] -0.116 | [7] 0.14 | [11] -0.131 | [12] 0.037 | [14] -0.095 | [17] 0.028 | [19] -0.023

OXLD1 (UniProt Q5BKU9)
inactive: [1] 0.044 | [3] -0.051 | [8] 0.023 | [11] -0.013 | [12] -0.036 | [14] 0.399 | [16] -0.074 | [17] -0.104 | [18] -0.02 | [19] -0.026

PACRGL (UniProt Q8N7B6)
inactive: [3] -0.062 | [4] -0.078 | [5] -0.246 | [6] 0.017 | [7] 0.069 | [8] 0.03 | [10] -0.017 | [13] 0.021 | [15] 0.205 | [16] 0.047 | [18] -0.422

NXF2 (UniProt Q9GZY0)
inactive: [4] 0.136 | [5] 0.018 | [6] -0.148 | [10] -0.043 | [13] -0.003 | [15] 0.1 | [20] 0.149

OPA3 isoform 2 (UniProt Q9H6K4)
inactive: [3] -0.041 | [5] -0.048 | [8] -0.068 | [13] -0.146 | [15] -0.044 | [16] 0.045 | [18] 0.001

PAQR7 (UniProt Q86WK9)
inactive: [20] -0.075

PAN3 (UniProt Q58A45)
inactive: [3] -0.085 | [8] 0.005 | [11] 0.129 | [12] 0.035 | [14] 0.373 | [16] 0.012 | [17] -0.108 | [18] -0.052

NXT2 isoform 3 (UniProt Q9NPJ8)
inactive: [1] -0.014 | [4] -0.102 | [6] -0.082 | [10] 0.014 | [19] 0.097

PAQR4 (UniProt Q8N4S7)
inactive: [20] 0.074

3 records picked at random from the list so far, as already listed:
NXT2 isoform 3 (UniProt Q9NPJ8)
inactive: [1] -0.014 | [4] -0.102 | [6] -0.082 | [10] 0.014 | [19] 0.097

PAN3 (UniProt Q58A45)
inactive: [3] -0.085 | [8] 0.005 | [11] 0.129 | [12] 0.035 | [14] 0.373 | [16] 0.012 | [17] -0.108 | [18] -0.052

OPA3 isoform 2 (UniProt Q9H6K4)
inactive: [3] -0.041 | [5] -0.048 | [8] -0.068 | [13] -0.146 | [15] -0.044 | [16] 0.045 | [18] 0.001

Later entries

NUP214, A0A494C1F2
inactive: [20] 0.026

ORC3 (UniProt Q9UBD5)
inactive: [1] 0.213 | [4] 0.129 | [6] -0.311 | [10] 0.082 | [11] 0.038 | [12] -0.062 | [14] 0.059 | [17] -0.084 | [19] -0.053

ORMDL3 (UniProt Q8N138)
inactive: [1] -0.112 | [3] -0.008 | [5] 0.19 | [8] -0.19 | [13] -0.263 | [15] -0.107 | [16] -0.093 | [18] -0.069 | [19] -0.107

OFD1 (UniProt O75665)
inactive: [2] -0.071 | [4] -0.019 | [5] -0.059 | [6] -0.064 | [7] -0.038 | [9] -0.109 | [10] 0.192 | [11] -0.201 | [12] -0.119 | [13] 0.008 | [14] 0.157 | [15] 0.162 | [17] 0.35

OGDH isoform 2 (UniProt Q02218)
inactive: [4] -0.1 | [6] -0.06 | [10] -0.04

PACS2 isoform 2 (UniProt Q86VP3)
inactive: [3] -0.066 | [4] 0.128 | [6] -0.131 | [7] -0.018 | [8] 0.134 | [10] 0.158 | [16] -0.234 | [18] -0.028 | [20] 0.035

P3H3 (UniProt Q8IVL6)
inactive: [5] -0.045 | [13] 0.039 | [15] -0.162 | [20] 0.16

P4HA1 isoform 2 (UniProt P13674)
inactive: [2] -0.033 | [3] 0.008 | [4] -0.083 | [6] 0.044 | [7] -0.048 | [8] 0.011 | [9] 0.033 | [10] 0.058 | [16] 0.061 | [18] 0.019 | [20] 0.028

PAPOLG (UniProt Q9BWT3)
inactive: [3] -0.139 | [4] -0.026 | [5] 0.02 | [6] -0.002 | [7] -0.027 | [8] 0.017 | [10] 0.067 | [11] 0.025 | [12] -0.025 | [13] -0.023 | [14] 0.031 | [15] 0.079 | [16] -0.056 | [17] 0.079 | [18] -0.054 | [20] 0.445

OGG1 isoform 4 (UniProt O15527)
inactive: [5] 0.229 | [7] -0.02 | [13] -0.389 | [15] -0.123 | [20] 0.063

OXR1 isoform 7 (UniProt Q8N573)
inactive: [4] 0.062 | [6] 0.014 | [10] 0.038

P4HB (UniProt I3L0S0)
inactive: [1] -0.215 | [19] -0.049

ORC1 (UniProt Q13415)
inactive: [7] 0.023

OAS3 (UniProt Q9Y6K5)
inactive: [1] -0.179 | [3] 0.19 | [7] 0.05 | [8] 0.096 | [11] -0.206 | [12] -0.004 | [14] 0 | [16] 0.083 | [17] -0.097 | [18] 0.085 | [19] -0.109 | [20] 0.199
